In patent publication US20220000974A1:
No constants are given. Whether binding was seen depends on the method and setting. In cells and extracts the contact can be indirect. Some results given as binding are weak or reduced against the parent protein; the word gives no strength.

The chains behind the UniProt entries cited, without tags or fusion partners.
UniProt P29351: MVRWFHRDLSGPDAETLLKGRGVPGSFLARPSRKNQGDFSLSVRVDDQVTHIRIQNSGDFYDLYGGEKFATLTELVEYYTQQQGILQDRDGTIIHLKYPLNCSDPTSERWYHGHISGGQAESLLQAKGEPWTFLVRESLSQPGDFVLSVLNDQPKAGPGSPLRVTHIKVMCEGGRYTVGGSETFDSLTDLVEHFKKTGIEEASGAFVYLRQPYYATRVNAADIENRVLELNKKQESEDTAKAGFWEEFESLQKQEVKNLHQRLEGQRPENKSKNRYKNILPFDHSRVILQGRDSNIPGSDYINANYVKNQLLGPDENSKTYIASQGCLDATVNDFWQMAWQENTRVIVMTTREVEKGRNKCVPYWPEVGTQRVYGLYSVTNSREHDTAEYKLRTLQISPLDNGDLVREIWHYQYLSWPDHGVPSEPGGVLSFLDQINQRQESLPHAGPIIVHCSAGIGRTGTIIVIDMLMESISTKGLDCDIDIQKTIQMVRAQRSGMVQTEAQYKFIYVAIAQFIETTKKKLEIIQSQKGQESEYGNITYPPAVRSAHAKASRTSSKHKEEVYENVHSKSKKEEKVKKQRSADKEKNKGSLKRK

Experiments:
[1] = biological target: T1, endogenous Siglec E of mouse spleen cells and peritoneal macrophages (mouse) (UniProt Q91Y57); assay: co-immunoprecipitation from spleen cell lysate, Western blot (FIG. 12c)
T1 sequence (looked up): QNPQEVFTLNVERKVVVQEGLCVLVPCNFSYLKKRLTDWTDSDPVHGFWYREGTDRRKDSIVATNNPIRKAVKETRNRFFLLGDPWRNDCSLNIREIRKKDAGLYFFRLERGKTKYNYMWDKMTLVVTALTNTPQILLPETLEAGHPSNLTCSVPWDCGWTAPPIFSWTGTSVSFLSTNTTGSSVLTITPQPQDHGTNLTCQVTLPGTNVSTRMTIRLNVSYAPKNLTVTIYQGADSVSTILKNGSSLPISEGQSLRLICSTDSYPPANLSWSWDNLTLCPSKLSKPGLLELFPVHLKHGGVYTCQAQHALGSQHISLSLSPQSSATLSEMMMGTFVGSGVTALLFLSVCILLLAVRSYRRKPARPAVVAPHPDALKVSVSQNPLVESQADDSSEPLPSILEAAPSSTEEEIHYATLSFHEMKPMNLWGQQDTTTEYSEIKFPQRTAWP

[2] = biological target: T2, endogenous Siglec G from mouse spleen cells (mouse) (UniProt Q80ZE3); assay: as above
T2 sequence (looked up): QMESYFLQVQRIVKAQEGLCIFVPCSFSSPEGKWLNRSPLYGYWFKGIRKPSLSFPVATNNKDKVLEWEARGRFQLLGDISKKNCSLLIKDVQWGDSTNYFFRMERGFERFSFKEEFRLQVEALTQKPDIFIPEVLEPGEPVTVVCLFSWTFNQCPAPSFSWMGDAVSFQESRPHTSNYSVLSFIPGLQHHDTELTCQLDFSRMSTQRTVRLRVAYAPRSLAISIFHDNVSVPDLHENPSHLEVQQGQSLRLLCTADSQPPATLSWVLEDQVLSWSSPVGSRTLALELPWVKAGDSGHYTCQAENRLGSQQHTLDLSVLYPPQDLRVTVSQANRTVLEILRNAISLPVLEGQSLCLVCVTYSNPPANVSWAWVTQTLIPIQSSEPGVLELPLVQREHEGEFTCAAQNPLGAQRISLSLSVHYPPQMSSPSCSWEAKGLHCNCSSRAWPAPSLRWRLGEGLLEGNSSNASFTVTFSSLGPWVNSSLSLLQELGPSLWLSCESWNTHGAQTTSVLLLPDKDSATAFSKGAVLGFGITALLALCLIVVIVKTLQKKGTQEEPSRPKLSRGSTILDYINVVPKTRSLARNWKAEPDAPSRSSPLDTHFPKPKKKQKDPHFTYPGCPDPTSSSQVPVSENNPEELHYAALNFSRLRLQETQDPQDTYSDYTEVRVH

[3] = biological target: T1, endogenous Siglec E of mouse spleen cells and peritoneal macrophages (mouse); assay: co-immunoprecipitation from WT spleen cell lysate, Western blot (FIG. 12c)
[4] = biological target: T2, endogenous Siglec G from mouse spleen cells (mouse); assay: as above

binding [1]: binds
binding [2]: binds
binding [3]: binds
binding [4]: binds
Substance: SHP-1, endogenous, from mouse spleen cells (from UniProt P29351 1-595) (enzyme)
